Reference: the supplement of paper PMC4604168 (melanoma cell lines)
This is one part of the list. Repeats are few or missing, and single values can be far off.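 Imaging used 1,536-well plates; nuclei positive for cleaved PARP by antibody were divided by total DNA-stained nuclei to yield the apoptosis fraction. Doses for screening kept most cells viable, and cell lines differ markedly in resting and induced cleaved-PARP levels.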

The compounds below were run on LOXIMVI (assay: cleaved PARP positive nuclei fraction relative to DMSO control; melanoma cells; higher = more apoptosis). Conditions: library dose: low library concentration; 72 h.

SMILES	cleaved PARP positive nuclei fraction
O=C(/C=C/c1cccnc1)NCCCCC1CCN(C(=O)c2ccccc2)CC1 + O=C(O)c1ccc(-c2c[nH]c3ncc(-c4ccccc4)cc23)cc1C1CCCC1 [GSK650394] (first compound 0.01 µM, partner dose 0.16 µM)	179%
Cc1cc(Nc2cc(N3CCN(C)CC3)nc(Sc3ccc(NC(=O)C4CC4)cc3)n2)n[nH]1 [Tozasertib] + NCC(=O)Nc1ccc(-n2nc(C(F)(F)F)cc2-c2ccc3c(ccc4ccccc43)c2)cc1 [OSU03012] (first compound 0.006 µM, partner dose 1 µM)	361%
Cc1cn(-c2cc(NC(=O)c3ccc(C)c(Nc4nccc(-c5cccnc5)n4)c3)cc(C(F)(F)F)c2)cn1 [nilotinib] + CO[C@@H]1[C@H](N(C)C(=O)c2ccccc2)C[C@H]2O[C@]1(C)n1c3ccccc3c3c4c(c5c6ccccc6n2c5c31)C(=O)NC4 [Midostaurin] (first compound 0.2 µM, partner dose 0.08 µM)	127%
Cc1ccc(Nc2nccc(N(C)c3ccc4c(C)n(C)nc4c3)n2)cc1S(N)(=O)=O [Pazopanib] + CN(NC(=O)CC(=O)NN(C)C(=S)c1ccccc1)C(=S)c1ccccc1 [STA4783] (first compound 0.4 µM, partner dose 0.006 µM)	167%
COc1cc([C@@H]2c3cc4c(cc3[C@@H](O[C@@H]3O[C@@H]5CO[C@@H](C)O[C@H]5[C@H](O)[C@H]3O)[C@H]3COC(=O)[C@H]23)OCO4)cc(OC)c1O [etoposide] + Cc1ccc(NC(=O)c2cccc(N(C)C)c2)cc1NC(=O)c1ccc(O)cc1 [ZM336372] (first compound 0.02 µM, partner dose 2 µM)	37.5%
O=C(/C=C/c1cccnc1)NCCCCC1CCN(C(=O)c2ccccc2)CC1 + CN(NC(=O)CC(=O)NN(C)C(=S)c1ccccc1)C(=S)c1ccccc1 [STA4783] (first compound 0.01 µM, partner dose 0.006 µM)	321%

What follows are compounds tested on MEL-HO in the same assay as above. Conditions: library dose: low library concentration; 72 h.

SMILES	cleaved PARP positive nuclei fraction
O=c1[nH]nc(Sc2ncc([N+](=O)[O-])s2)n1-c1ccc2c(c1)OCCO2 + COc1cc2c(Oc3ccc4[nH]c(C)cc4c3F)ncnc2cc1OCCCN1CCCC1 [cediranib] (first compound 0.2 µM, partner dose 0.4 µM)	121%
Cc1cc(Nc2cc(N3CCN(C)CC3)nc(Sc3ccc(NC(=O)C4CC4)cc3)n2)n[nH]1 [Tozasertib] + NC(=O)Nc1cc(-c2cccc(F)c2)sc1C(=O)N[C@H]1CCCNC1 [AZD7762] (first compound 0.006 µM, partner dose 0.02 µM)	66.3%
Cc1cn(-c2cc(NC(=O)c3ccc(C)c(Nc4nccc(-c5cccnc5)n4)c3)cc(C(F)(F)F)c2)cn1 [nilotinib] + O=C(Nc1cccc(Cl)c1)Nc1ncc(CCNc2ncnc3ccsc23)s1 [SNS314] (first compound 0.2 µM, partner dose 0.0008 µM)	64.9%
CCCCCCCCCCCCCCCCCCOP(=O)([O-])OC1CC[N+](C)(C)CC1 [Perifosine] + CC(C)(C)c1cnc(CSc2cnc(NC(=O)C3CCNCC3)s2)o1 [SNS-032] (first compound 0.4 µM, partner dose 0.01 µM)	68.7%
O=C(Nc1cc(C(F)(F)F)cc(C(F)(F)F)c1)c1cc(Cl)ccc1O + NCC(=O)Nc1ccc(-n2nc(C(F)(F)F)cc2-c2ccc3c(ccc4ccccc43)c2)cc1 [OSU03012] (first compound 0.016 µM, partner dose 1 µM)	61.9%
CCCCCCCCCCCCCCCCCCOP(=O)([O-])OC1CC[N+](C)(C)CC1 [Perifosine] + O=C(O)c1ccc(-c2c[nH]c3ncc(-c4ccccc4)cc23)cc1C1CCCC1 [GSK650394] (first compound 0.4 µM, partner dose 0.16 µM)	173%
O=C(Nc1cc(C(F)(F)F)cc(C(F)(F)F)c1)c1cc(Cl)ccc1O + C[C@@H]1CCN(C(=O)CC#N)C[C@@H]1N(C)c1ncnc2[nH]ccc12 [CP690550] (first compound 0.016 µM, partner dose 1 µM)	35.1%
CC[C@]1(O)C[C@H]2CN(CCc3c([nH]c4ccccc34)[C@@](C(=O)OC)(c3cc4c(cc3OC)N(C=O)[C@H]3[C@@](O)(C(=O)OC)[C@H](OC(C)=O)[C@]5(CC)C=CCN6CC[C@]43[C@@H]65)C2)C1 [vincristine] + CO[C@@H]1[C@H](N(C)C(=O)c2ccccc2)C[C@H]2O[C@]1(C)n1c3ccccc3c3c4c(c5c6ccccc6n2c5c31)C(=O)NC4 [Midostaurin] (first compound 0.0001 µM, partner dose 0.08 µM)	23.6%

Not a retest: an excerpt of the list.
SMILES	cleaved PARP positive nuclei fraction
Cc1cn(-c2cc(NC(=O)c3ccc(C)c(Nc4nccc(-c5cccnc5)n4)c3)cc(C(F)(F)F)c2)cn1 [nilotinib] + O=C(Nc1cccc(Cl)c1)Nc1ncc(CCNc2ncnc3ccsc23)s1 [SNS314] (first compound 0.2 µM, partner dose 0.0008 µM)	64.9%
CCCCCCCCCCCCCCCCCCOP(=O)([O-])OC1CC[N+](C)(C)CC1 [Perifosine] + CC(C)(C)c1cnc(CSc2cnc(NC(=O)C3CCNCC3)s2)o1 [SNS-032] (first compound 0.4 µM, partner dose 0.01 µM)	68.7%
